Data reported in publication PMC3475652.
These are yes or no findings as the source states them, for the method shown. In cells and extracts the contact can be indirect. Some entries that bind do so weakly or less than the wild type.

Protein sequences, listed by entry. Tags and fused reporters are not part of them.
UniProt Q08999: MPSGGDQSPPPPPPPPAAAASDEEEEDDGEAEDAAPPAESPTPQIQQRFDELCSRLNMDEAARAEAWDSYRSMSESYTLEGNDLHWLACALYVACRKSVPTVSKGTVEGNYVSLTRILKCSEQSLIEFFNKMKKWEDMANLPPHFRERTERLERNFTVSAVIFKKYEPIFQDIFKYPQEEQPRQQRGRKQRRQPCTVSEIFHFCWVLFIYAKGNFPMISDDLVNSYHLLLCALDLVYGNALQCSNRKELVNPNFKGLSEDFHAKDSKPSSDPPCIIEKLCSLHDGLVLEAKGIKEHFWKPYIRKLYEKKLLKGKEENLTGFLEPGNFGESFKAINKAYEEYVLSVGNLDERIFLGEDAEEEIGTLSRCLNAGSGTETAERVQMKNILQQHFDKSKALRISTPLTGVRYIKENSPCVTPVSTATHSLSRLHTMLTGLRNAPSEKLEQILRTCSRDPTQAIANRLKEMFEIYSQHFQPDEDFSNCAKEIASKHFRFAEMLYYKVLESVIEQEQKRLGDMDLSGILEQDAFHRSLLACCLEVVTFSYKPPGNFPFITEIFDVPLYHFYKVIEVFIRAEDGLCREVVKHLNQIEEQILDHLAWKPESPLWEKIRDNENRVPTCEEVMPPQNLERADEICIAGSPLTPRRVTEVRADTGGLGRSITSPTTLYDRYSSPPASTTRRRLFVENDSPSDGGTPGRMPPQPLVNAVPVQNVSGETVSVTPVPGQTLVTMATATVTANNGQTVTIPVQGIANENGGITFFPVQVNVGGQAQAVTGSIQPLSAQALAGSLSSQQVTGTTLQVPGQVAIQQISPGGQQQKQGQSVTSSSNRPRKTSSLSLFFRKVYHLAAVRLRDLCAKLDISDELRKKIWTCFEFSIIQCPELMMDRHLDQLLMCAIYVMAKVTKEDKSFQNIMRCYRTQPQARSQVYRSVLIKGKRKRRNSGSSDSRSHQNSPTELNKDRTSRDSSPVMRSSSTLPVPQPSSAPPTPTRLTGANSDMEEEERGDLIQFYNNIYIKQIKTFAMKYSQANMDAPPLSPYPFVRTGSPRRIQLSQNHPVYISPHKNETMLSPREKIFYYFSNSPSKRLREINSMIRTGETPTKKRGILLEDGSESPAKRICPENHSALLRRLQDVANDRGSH
UniProt Q96GY3: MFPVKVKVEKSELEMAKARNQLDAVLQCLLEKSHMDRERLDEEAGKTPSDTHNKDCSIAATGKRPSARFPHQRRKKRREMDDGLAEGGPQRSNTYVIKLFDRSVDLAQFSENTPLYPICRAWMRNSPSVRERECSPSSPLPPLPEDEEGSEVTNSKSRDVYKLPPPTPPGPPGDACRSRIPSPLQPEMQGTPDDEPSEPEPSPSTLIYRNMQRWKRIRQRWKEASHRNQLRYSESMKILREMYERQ

Columns and labels:
[1] = target: HA-tagged p130 (UniProt Q08999); test: co-IP; extracts of T98G cells transfected with HA-tagged p130 and LT; anti-HA immunoprecipitation; western blot
[2] = target: HA-tagged p130 (UniProt Q08999); test: co-IP; extracts of T98G cells transfected with HA-tagged p130, without LT; anti-HA immunoprecipitation; western blot

| Substance | binding [1] | binding [2] |
| --- | --- | --- |
| SV40 large T antigen (LT) transfected into T98G cells (from UniProt P03070 1-708) | binds |  |
| LIN37 (from UniProt Q96GY3 1-246) |  | binds |
